These are yes or no findings as the source states them, for the method shown. Binding seen in cells or lysates may run through a third protein. These calls come from enrichment with a bait or labelling near it, and not all partners need be listed.
Target: miniTurbo–3×FLAG fused to WT CNAα (calcineurin catalytic subunit alpha, PPP3CA) (human) (UniProt Q08209)
Experiment: proximity labelling; miniTurbo–3×FLAG–CNAα (WT or NIRmut) stably expressed in HEK293 Flp-In T-REx cells; 50 μM biotin for 15 min at 37°C; asynchronous, G1/S or mitotic cells; streptavidin purification, mass spectrometry (DDA and DIA), SAINT against miniTurbo–3×FLAG alone, BFDR≤0.01

- binding: binds
B1: PHKA1 (protein, UniProt P46020 1-1223)
chain: MRSRSNSGVRLDGYARLVQQTILCHQNPVTGLLPASYDQKDAWVRDNVYSILAVWGLGLAYRKNADRDEDKAKAYELEQSVVKLMRGLLHCMIRQVDKVESFKYSQSTKDSLHAKYNTKTCATVVGDDQWGHLQLDATSVYLLFLAQMTASGLHIIHSLDEVNFIQNLVFYIEAAYKTADFGIWERGDKTNQGISELNASSVGMAKAALEALDELDLFGVKGGPQSVIHVLADEVQHCQSILNSLLPRASTSKEVDASLLSVVSFPAFAVEDSQLVELTKQEIITKLQGRYGCCRFLRDGYKTPKEDPNRLYYEPAELKLFENIECEWPLFWTYFILDGVFSGNAEQVQEYKEALEAVLIKGKNGVPLLPELYSVPPDRVDEEYQNPHTVDRVPMGKLPHMWGQSLYILGSLMAEGFLAPGEIDPLNRRFSTVPKPDVVVQVSILAETEEIKTILKDKGIYVETIAEVYPIRVQPARILSHIYSSLGCNNRMKLSGRPYRHMGVLGTSKLYDIRKTIFTFTPQFIDQQQFYLALDNKMIVEMLRTDLSYLCSRWRMTGQPTITFPISHSMLDEDGTSLNSSILAALRKMQDGYFGGARVQTGKLSEFLTTSCCTHLSFMDPGPEGKLYSEDYDDNYDYLESGNWMNDYDSTSHARCGDEVARYLDHLLAHTAPHPKLAPTSQKGGLDRFQAAVQTTCDLMSLVTKAKELHVQNVHMYLPTKLFQASRPSFNLLDSPHPRQENQVPSVRVEIHLPRDQSGEVDFKALVLQLKETSSLQEQADILYMLYTMKGPDWNTELYNERSATVRELLTELYGKVGEIRHWGLIRYISGILRKKVEALDEACTDLLSHQKHLTVGLPPEPREKTISAPLPYEALTQLIDEASEGDMSISILTQEIMVYLAMYMRTQPGLFAEMFRLRIGLIIQVMATELAHSLRCSAEEATEGLMNLSPSAMKNLLHHILSGKEFGVERSVRPTDSNVSPAISIHEIGAVGATKTERTGIMQLKSEIKQVEFRRLSISAESQSPGTSMTPSSGSFPSAYDQQSSKDSRQGQWQRRRRLDGALNRVPVGFYQKVWKVLQKCHGLSVEGFVLPSSTTREMTPGEIKFSVHVESVLNRVPQPEYRQLLVEAILVLTMLADIEIHSIGSIIAVEKIVHIANDLFLQEQKTLGADDTMLAKDPASGICTLLYDSAPSGRFGTMTYLSKAAATYVQEFLPHSICAMQ

Source: publication PMC10163345
